Results from article PMC8301221.
No constants are given. Whether binding was seen depends on the method and setting. Binding seen in cells or lysates may run through a third protein.

Sequences of proteins named here, by UniProt entry; tags and fusion partners are left off.
UniProt P52630: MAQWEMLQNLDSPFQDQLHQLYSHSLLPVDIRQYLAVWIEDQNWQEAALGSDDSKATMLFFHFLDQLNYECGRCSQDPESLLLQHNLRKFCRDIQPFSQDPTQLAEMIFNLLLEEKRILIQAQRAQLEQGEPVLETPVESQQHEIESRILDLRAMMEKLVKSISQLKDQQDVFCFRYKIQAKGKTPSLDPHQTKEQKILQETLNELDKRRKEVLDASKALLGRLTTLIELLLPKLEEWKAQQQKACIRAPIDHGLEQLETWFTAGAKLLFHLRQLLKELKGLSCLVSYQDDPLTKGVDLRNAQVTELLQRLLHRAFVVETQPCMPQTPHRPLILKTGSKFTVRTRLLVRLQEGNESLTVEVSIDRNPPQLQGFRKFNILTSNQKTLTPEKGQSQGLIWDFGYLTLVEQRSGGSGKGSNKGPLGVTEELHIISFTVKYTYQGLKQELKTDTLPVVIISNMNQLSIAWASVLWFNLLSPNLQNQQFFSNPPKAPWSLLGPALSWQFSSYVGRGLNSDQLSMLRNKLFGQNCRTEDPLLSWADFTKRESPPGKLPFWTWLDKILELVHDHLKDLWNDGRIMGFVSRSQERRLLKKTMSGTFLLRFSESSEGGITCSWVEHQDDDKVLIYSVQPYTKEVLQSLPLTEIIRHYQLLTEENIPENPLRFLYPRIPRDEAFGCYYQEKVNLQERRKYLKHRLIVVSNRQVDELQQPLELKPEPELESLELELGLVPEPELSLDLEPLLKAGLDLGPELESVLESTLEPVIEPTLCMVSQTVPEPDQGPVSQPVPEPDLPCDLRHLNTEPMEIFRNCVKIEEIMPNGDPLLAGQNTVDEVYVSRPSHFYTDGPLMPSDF
UniProt P42224: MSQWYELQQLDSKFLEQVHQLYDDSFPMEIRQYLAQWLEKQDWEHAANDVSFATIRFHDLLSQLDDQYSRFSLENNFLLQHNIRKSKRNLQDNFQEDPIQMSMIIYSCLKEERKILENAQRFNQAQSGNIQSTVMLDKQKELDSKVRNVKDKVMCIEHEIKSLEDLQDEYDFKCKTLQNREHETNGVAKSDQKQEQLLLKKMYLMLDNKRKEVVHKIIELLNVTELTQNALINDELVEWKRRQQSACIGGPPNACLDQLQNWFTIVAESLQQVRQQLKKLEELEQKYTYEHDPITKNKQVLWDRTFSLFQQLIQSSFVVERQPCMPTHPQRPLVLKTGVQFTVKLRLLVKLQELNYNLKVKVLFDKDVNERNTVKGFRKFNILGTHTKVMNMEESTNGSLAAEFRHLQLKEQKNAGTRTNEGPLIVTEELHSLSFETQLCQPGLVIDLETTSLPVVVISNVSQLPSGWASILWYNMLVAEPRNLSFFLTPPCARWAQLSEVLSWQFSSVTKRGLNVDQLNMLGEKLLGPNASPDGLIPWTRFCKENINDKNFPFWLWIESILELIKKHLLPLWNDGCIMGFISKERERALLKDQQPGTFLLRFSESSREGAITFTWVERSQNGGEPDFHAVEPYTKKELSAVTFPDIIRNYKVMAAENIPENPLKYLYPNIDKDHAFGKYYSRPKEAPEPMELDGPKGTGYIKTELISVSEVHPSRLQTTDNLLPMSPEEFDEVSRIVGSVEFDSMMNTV
UniProt P16846: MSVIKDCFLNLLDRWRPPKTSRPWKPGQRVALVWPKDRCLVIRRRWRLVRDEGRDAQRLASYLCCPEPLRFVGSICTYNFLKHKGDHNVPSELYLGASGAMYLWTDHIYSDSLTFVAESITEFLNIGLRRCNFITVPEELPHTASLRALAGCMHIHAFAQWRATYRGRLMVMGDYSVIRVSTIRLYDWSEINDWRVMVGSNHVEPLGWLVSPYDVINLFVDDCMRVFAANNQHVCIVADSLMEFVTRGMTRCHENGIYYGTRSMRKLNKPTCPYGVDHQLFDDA

What was measured:
Assay in all cases: co-IP; HEK293T cells transfected with empty vector or Flag-UL23 plasmid for 46 h; RIPA lysates immunoprecipitated separately with anti-IRF9, anti-STAT1 and anti-STAT2 antibodies and protein A/G; immunoblot
[1] = biological target: signal transducer and activator of transcription 2 (STAT2) (human (endogenous in HEK293T)) (UniProt P52630)
[2] = biological target: T1, IFN regulatory factor 9 (IRF9) (human (endogenous in HEK293T)) (UniProt Q00978)
T1 sequence: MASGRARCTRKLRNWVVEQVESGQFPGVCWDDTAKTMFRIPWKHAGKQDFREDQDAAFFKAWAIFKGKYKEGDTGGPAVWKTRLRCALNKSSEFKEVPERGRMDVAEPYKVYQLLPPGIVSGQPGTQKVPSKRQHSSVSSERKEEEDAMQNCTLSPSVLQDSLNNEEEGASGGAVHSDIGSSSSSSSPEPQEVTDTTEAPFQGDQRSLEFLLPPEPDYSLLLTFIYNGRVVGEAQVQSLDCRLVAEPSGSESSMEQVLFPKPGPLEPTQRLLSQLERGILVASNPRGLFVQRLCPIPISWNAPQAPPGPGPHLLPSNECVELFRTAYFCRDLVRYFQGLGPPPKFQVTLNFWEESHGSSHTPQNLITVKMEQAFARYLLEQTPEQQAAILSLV

[3] = biological target: signal transducer and activator of transcription 1 (STAT1) (human (endogenous in HEK293T)) (UniProt P42224)

Measured: binding

Human cytomegalovirus (HCMV) tegument protein UL23, Flag-tagged (from UniProt P16846 1-284)
no binding: all assays above
